Melanoma cell counts after drug treatment

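Human melanoma cells were exposed to two drugs together for 72 h in 1,536-well plates and read by automated microscopy after fixing and staining. Each value is the count of nuclei relative to DMSO-treated wells, in %, so that 100 equals the control. Every drug was used at one fixed concentration, the higher of two screened. No replicate spread is given; individual values may be noisy.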
This is part of the screen, not chosen by result.
An entry leaves out what has no value listed here.
A dash means that no value is listed here.

Drugs:
GW0742, 10 µM: Cc1cc(SCc2sc(-c3ccc(C(F)(F)F)c(F)c3)nc2C)ccc1OCC(=O)O
KU-55933, 5 µM: O=c1cc(-c2cccc3c2Sc2ccccc2S3)oc(N2CCOCC2)c1
TCS401, 8.33 µM: O=C(O)C(=O)Nc1sc2c(c1C(=O)O)CCNC2
MK-2206, 2 µM: NC1(c2ccc(-c3nc4ccn5c(=O)[nH]nc5c4cc3-c3ccccc3)cc2)CCC1
IMD-0354, 0.08 µM: O=C(Nc1cc(C(F)(F)F)cc(C(F)(F)F)c1)c1cc(Cl)ccc1O
nutlin-3, 0.5 µM: COc1ccc(C2=N[C@@H](c3ccc(Cl)cc3)[C@@H](c3ccc(Cl)cc3)N2C(=O)N2CCNC(=O)C2)c(OC(C)C)c1
veliparib, 7 µM: C[C@]1(c2nc3c(C(N)=O)cccc3[nH]2)CCCN1
XAV939, 10 µM: Oc1nc(-c2ccc(C(F)(F)F)cc2)nc2c1CSCC2
JZL184, 5 µM: O=C(Oc1ccc([N+](=O)[O-])cc1)N1CCC(C(O)(c2ccc3c(c2)OCO3)c2ccc3c(c2)OCO3)CC1
indole-3-carbinol, 4 µM: OCc1c[nH]c2ccccc12
PF-04217903, 5 µM: OCCn1cc(-c2cnc3nnn(Cc4ccc5ncccc5c4)c3n2)cn1
crizotinib, 1 µM: C[C@@H](Oc1cc(-c2cnn(C3CCNCC3)c2)cnc1N)c1c(Cl)ccc(F)c1Cl
SNS-032, 0.05 µM: CC(C)(C)c1cnc(CSc2cnc(NC(=O)C3CCNCC3)s2)o1
selumetinib, 0.075 µM: Cn1cnc2c(F)c(Nc3ccc(Br)cc3Cl)c(C(=O)NOCCO)cc21
ZM336372, 10 µM: Cc1ccc(NC(=O)c2cccc(N(C)C)c2)cc1NC(=O)c1ccc(O)cc1
GSK650394, 0.8 µM: O=C(O)c1ccc(-c2c[nH]c3ncc(-c4ccccc4)cc23)cc1C1CCCC1
cediranib, 2 µM: COc1cc2c(Oc3ccc4[nH]c(C)cc4c3F)ncnc2cc1OCCCN1CCCC1
vismodegib, 5 µM: CS(=O)(=O)c1ccc(C(=O)Nc2ccc(Cl)c(-c3ccccn3)c2)c(Cl)c1
T0901317, 7 µM: O=S(=O)(c1ccccc1)N(CC(F)(F)F)c1ccc(C(O)(C(F)(F)F)C(F)(F)F)cc1
CX-4945, 2 µM: O=C(O)c1ccc2c(c1)nc(Nc1cccc(Cl)c1)c1ccncc12

| Pair | COLO 792 | COLO 800 | C32 | WM451Lu | WM3619 | COLO 829 |
|---|---|---|---|---|---|---|
| T0901317 and SNS-032 | - | - | 65.4 | - | - | - |
| T0901317 and GSK650394 | - | - | - | 79.9 | 60.1 | - |
| crizotinib and KU-55933 | 128 | 44.9 | 90.9 | 94.4 | 134 | 116 |
| cediranib and GW0742 | 90.1 | 47.2 | 93.0 | 117 | 96.1 | 127 |
| veliparib and T0901317 | 76.4 | 46.0 | 101 | 81.9 | 68.4 | 72.2 |
| TCS401 and veliparib | 79.6 | 85.6 | 82.0 | 116 | 76.6 | 95.0 |
| JZL184 and GSK650394 | 92.6 | 95.1 | 111 | 117 | 97.3 | 87.2 |
| XAV939 and vismodegib | 89.5 | - | - | 86.8 | 88.5 | - |
| IMD-0354 and selumetinib | 60.9 | 81.0 | 80.4 | 57.5 | 78.5 | 88.2 |
| ZM336372 and vismodegib | 210 | 206 | 105 | 87.9 | 125 | 154 |
| JZL184 and T0901317 | 117 | 123 | 97.3 | 107 | 85.1 | 93.8 |
| PF-04217903 and cediranib | 54.5 | 91.6 | 80.3 | 91.6 | 97.3 | 94.5 |
| nutlin-3 and GSK650394 | 64.8 | 69.7 | 71.2 | 113 | 58.9 | 66.1 |
| TCS401 and vismodegib | - | - | 120 | 88.3 | 92.2 | - |
| nutlin-3 and cediranib | 74.6 | 53.4 | 73.9 | 119 | 138 | 75.8 |
| CX-4945 and indole-3-carbinol | - | - | 102 | 103 | 78.8 | - |
| MK-2206 and TCS401 | 60.3 | - | - | 88.2 | 73.9 | - |
| GW0742 and selumetinib | 85.8 | 106 | 82.5 | 67.4 | 74.6 | 97.8 |

Once more, the final 2:

{"pair": "MK-2206 and TCS401", "COLO 792": 60.3, "WM451Lu": 88.2, "WM3619": 73.9}
{"pair": "GW0742 and selumetinib", "COLO 792": 85.8, "COLO 800": 106, "C32": 82.5, "WM451Lu": 67.4, "WM3619": 74.6, "COLO 829": 97.8}

Values as published with doi:10.1371/journal.pone.0140310, rounded.